Experimental data as given in patent publication US7262169 (dated 2007).

Assay: general procedure: solution-phase peptide synthesis; EDC hydrochloride with HOBt, HOAt or HOPO; N-ethylmorpholine
Details: HCl salt (tetrapeptide); for final HPLC purity: 210 nm
[1] = late stage modification step, HPLC A % (210 nm)

Q: With Boc-Chg-Gln-Ser-Leu-O-benzyl as the substance, how does the step yield (coupling step) read?
A: 93%

Q: What about the “crude HPLC purity” value (coupling step, HPLC A % (210 nm)) of the same substance?
A: 96.0 A %

Q: What does the source list for “Fm-Glutaryl-Hyp-Ala-Ser-Chg-Gln-Ser-Leu-O-benzyl”?
A: step yield (coupling step, run 1): 97.0%; step yield (coupling step, run 2): 100.0%; crude HPLC purity (coupling step, HPLC A % (210 nm), run 1): 96.5 A %; crude HPLC purity (coupling step, HPLC A % (210 nm), run 2): 98.0 A %

Q: For “Fm-Glutaryl-Hyp-Ala-Ser-Chg-Gln-Ser-Leu-OH”, which step yield (late stage modification step, run 1) is on record?
A: 85%

Q: And the step yield (late stage modification step, run 2)?
A: 97.5%

Q: What about the “crude HPLC purity” value (late stage modification step, HPLC A % (210 nm), run 1) of the same substance?
A: 88.3 A %

Q: What about the “crude HPLC purity” value (late stage modification step, HPLC A % (210 nm), run 2) of the same substance?
A: 85.6 A %

Q: What about the “final HPLC purity” value (purification step) of the same substance?
A: 94.9 A %

Q: What about the step yield (purification step) of the same substance?
A: 93.0% recovery

Q: For HCl.H-Chg-Gln-Ser-Leu-OBn, which “crude HPLC purity” value [1] is on record?
A: 83.5 A %

Q: And the “crude purity (method not given)” value [1]?
A: 76%

Q: What about the step yield (late stage modification step, from the N-Boc.tetrapeptide-OBn) of the same substance?
A: 61%

Q: What about the “final HPLC purity” value (purification step, run 1) of the same substance?
A: 95.7 A %

Q: What about the “final HPLC purity” value (purification step, run 2) of the same substance?
A: 97.5 A %

Q: And the step yield (purification step, from the N-Boc.tetrapeptide-OBn)?
A: 83.1%
